This note sets out measurements from patent US10336832.

These are yes or no findings as the source states them, for the method shown. Binding can be weak; no strength is given.

Test [1] addresses human prekallikrein (human). The test can be described thus: characteristics.
Test [2] addresses human prekallikrein (human). The experiment in a line: binding category.
Test [3] has as its target human pKal-AEBSF complex (human). The experiment in a line: Biacore. For orientation: Surface plasmon resonance follows binding to a sensor surface in real time, without labels.

B1: M35-G04 (Fab, V domains shown)
VH: EVQLLESGGGLVQPGGSLRLSCAASGFTFSYYHMSWVRQAPGKGLEWVSVISPSGGSTKYADSVKGRFTISRDNSKNTLYLQMNSLRAEDTAVYYCARGGSSDYAWGSYRRPYYFDYWGQGTLVTVSS
VL: DIQMTQSPATLSLSPGERATLSCRASQSVSSYLAWYQQKPGQAPRLLIYDASNRATGIPARFSGSGSGTDFTLTISSLEPEDFAVYYCQQRSNWPRGFTFGPGTKVDIK
B1: the binding result in test [1] and in test [2] was “binds” in each case.

B2: M6-D09 (Fab, V domains shown)
VH: EVQLLESGGGLVQPGGSLRLSCAASGFTFSFYYMVWVRQAPGKGLEWVSVIYPSGGITVYADSVKGRFTISRDNSKNTLYLQMNSLRAEDTAVYYCARDKWAVMPPYYYYAMDVWGQGTTVTVSS
VL: DIQMTQSPSSLSASVGDRVTITCRASQSIRNYLNWYQQKPGKAPNLLIYAASTLQSGVPARFSGSGSGTDFTLTISSLQPEDFATYYCQQLSGYPHTFGQGTKLEIK
As for B2, the binding result in test [1] and in test [2] was “binds” each time.

B3: M29-D09 (Fab, V domains shown)
VH: EVQLLESGGGLVQPGGSLRLSCAASGFTFSWYTMVWVRQAPGKGLEWVSYIYPSGGATFYADSVKGRFTISRDNSKNTLYLQMNSLRAEDTAVYYCAMGSYDYIWGFYSDHWGQGTLVTVSS
VL: QSALTQPPTVSVSPGQTARITCSGNKLGDKYVAWYQQKPGQSPMLVIYQDTKRPSRVSERFSGSNSANTATLSISGTQALDEADYYCQAWDSSIVIFGGGTRLTVL
With B3, the binding result in test [3] was “binds”.
